No constants are given. Whether binding was seen depends on the method and setting. In cells and extracts the contact can be indirect. These calls come from enrichment with a bait or labelling near it, and not all partners need be listed.
T1: SFB-SPRTN full-length (FL) (UniProt Q9H040)
T1 sequence: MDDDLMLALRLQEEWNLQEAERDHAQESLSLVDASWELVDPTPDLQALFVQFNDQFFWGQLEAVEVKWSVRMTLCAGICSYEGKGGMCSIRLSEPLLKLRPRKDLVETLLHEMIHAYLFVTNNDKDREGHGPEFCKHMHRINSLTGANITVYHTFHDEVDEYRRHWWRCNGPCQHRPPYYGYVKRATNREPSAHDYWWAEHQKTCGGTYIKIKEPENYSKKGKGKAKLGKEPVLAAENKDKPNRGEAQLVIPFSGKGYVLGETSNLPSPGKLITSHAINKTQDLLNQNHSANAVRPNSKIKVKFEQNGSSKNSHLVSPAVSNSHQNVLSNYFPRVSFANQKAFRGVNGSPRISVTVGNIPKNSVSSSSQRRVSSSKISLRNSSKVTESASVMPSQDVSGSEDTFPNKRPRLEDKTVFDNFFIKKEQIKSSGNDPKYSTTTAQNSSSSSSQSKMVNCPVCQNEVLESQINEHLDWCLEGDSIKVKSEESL

By UniProt entry, the sequences of proteins in these tests, tags left out.
UniProt P51784: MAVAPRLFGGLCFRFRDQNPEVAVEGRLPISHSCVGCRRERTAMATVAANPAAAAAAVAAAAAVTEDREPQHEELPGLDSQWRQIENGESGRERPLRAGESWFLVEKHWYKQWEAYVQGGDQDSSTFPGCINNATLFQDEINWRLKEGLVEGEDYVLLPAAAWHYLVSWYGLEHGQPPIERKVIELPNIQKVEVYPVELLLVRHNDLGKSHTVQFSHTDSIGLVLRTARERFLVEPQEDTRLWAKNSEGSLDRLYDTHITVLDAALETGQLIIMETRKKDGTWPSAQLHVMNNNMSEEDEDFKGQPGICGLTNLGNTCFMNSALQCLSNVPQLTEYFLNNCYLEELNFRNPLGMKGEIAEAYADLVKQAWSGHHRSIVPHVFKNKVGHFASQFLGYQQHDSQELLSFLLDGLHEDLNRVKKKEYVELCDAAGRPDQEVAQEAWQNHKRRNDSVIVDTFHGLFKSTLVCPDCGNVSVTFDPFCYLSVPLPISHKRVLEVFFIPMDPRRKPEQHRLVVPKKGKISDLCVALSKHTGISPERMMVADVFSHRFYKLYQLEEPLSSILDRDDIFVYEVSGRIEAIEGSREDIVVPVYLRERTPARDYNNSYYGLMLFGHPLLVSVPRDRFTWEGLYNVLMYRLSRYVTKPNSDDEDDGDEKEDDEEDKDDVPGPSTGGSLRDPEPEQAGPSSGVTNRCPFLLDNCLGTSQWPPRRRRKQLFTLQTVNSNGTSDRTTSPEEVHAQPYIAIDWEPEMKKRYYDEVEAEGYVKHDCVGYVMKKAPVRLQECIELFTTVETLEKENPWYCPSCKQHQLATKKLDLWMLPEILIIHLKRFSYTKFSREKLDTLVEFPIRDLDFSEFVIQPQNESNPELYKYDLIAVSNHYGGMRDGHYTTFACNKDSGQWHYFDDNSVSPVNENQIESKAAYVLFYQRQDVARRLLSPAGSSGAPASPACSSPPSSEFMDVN
UniProt Q93009: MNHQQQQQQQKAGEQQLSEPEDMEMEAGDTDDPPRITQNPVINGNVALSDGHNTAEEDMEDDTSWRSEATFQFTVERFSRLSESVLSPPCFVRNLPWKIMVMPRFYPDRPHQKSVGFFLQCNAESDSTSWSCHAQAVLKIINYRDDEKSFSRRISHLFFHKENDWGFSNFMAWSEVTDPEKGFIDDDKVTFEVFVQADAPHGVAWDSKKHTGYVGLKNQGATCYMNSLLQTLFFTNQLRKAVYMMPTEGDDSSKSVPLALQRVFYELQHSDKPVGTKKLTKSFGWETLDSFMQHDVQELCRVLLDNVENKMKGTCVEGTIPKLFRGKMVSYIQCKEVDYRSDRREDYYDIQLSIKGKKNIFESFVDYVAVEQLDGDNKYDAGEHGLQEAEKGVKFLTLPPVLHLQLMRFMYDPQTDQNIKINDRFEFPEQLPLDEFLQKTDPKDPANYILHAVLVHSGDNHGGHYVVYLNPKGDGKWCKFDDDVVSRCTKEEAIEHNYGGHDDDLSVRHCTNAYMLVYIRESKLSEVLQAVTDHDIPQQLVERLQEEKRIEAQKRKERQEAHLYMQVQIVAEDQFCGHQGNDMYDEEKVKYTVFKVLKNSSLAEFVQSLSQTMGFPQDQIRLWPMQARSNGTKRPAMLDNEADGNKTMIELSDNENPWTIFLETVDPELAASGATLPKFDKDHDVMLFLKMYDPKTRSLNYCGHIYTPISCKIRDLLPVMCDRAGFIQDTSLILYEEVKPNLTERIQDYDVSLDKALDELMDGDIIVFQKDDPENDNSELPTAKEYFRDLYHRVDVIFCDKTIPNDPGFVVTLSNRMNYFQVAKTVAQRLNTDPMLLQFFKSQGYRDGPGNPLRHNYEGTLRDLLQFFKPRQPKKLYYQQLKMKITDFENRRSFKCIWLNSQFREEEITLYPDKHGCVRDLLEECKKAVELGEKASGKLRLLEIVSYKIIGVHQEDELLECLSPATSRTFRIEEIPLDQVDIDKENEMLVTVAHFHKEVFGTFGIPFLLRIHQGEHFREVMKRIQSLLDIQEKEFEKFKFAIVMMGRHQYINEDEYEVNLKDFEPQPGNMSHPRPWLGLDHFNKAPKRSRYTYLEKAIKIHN

B1: POLD3 (protein, UniProt Q15054 1-466)
chain: MADQLYLENIDEFVTDQNKIVTYKWLSYTLGVHVNQAKQMLYDYVERKRKENSGAQLHVTYLVSGSLIQNGHSCHKVAVVREDKLEAVKSKLAVTASIHVYSIQKAMLKDSGPLFNTDYDILKSNLQNCSKFSAIQCAAAVPRAPAESSSSSKKFEQSHLHMSSETQANNELTTNGHGPPASKQVSQQPKGIMGMFASKAAAKTQETNKETKTEAKEVTNASAAGNKAPGKGNMMSNFFGKAAMNKFKVNLDSEQAVKEEKIVEQPTVSVTEPKLATPAGLKKSSKKAEPVKVLQKEKKRGKRVALSDDETKETENMRKKRRRIKLPESDSSEDEVFPDSPGAYEAESPSPPPPPSPPLEPVPKTEPEPPSVKSSSGENKRKRKRVLKSKTYLDGEGCIVTEKVYESESCTDSEEELNMKTSSVHRPPAMTVKKEPREERKGPKKGTAALGKANRQVSITGFFQRK

Assays:
SFB-USP11 = SFB-USP11 (UniProt P51784); assay: affinity purification with mass spectrometry; TAP-MS: SFB-tagged bait stably expressed in HEK 293T; lysate in NETN buffer (250 mM NaCl, 5 mM EDTA pH 8.0, 50 mM Tris-HCl pH 8.0, 0.5% Nonidet P-40); streptavidin-Sepharose beads, biotin elution, then S-protein-agarose beads; SFB-USP11 cells treated with 10 μM CPT for 2 h
[1] = target: T1, SFB-SPRTN full-length (FL); assay: as above

Row | Molecule | binding (SFB-USP11) | binding [1]
1 | Endogenous USP7 (from UniProt Q93009 1-1102) | binds | –
2 | Endogenous USP11 (from UniProt P51784 1-963) | – | binds
3 | VCP (from UniProt P55072 1-806) | – | binds
4 | B1 | – | binds

Reference: publication PMC7960550
